Results taken from PubChem BioAssay AID330 (DTP/NCI, 2004).
The list shows only some results of the screen, not a fair sample: it is rich in T/C values a quarter to a half above the control, in often repeated tests (any T/C) and in doses without a T/C. Further doses and runs are listed elsewhere. T/C: endpoint of the treated group in % of that of the vehicle group. Some doses have a count of surviving animals in place of a T/C: the source holds a T/C of zero for them, seemingly a mark for toxic or unscored doses. Some survivor counts are full or nearly so, which does not show that the dose was tolerated: survival well below the control is almost never listed, so the zero probably covers shortened survival too. Survivors were counted at the toxicity check, usually on the fifth day, unless a day is given; later deaths do not show. Schedule codes are those of the source, taken here to give the interval after Q, in days (D) or hours (H), and the number of doses after X. Some entries were tested several times; the results are listed from low to high. Marks such as (2×) stand for listed records that agree. Where survival is the endpoint, the PubChem record calls one and a half times the control and up active, and a quarter to a half above the control has no call in these data; cut-offs in other NCI protocols can differ. Some T/C values are followed by the survivors on the day toxicity was checked, most often the fifth; where none is given, no animal had died by that day.

Tested on: P388 leukemia ip, CD2F1 mice, survival T/C
Assay: NCI In Vivo Anticancer Drug Screen. Data for tumor model P388 Leukemia (intraperitoneal) in CD2F1 (CDF1) mice
Details: T/C endpoint: median survival time, higher T/C = longer survival
[1] = dose: 40.0 mg/kg/injection, schedule: Q01DX001 (ip), vehicle: water
[2] = dose: 40.0 mg/kg/injection, schedule: Q04DX003 (ip), vehicle: water

In the case of `N[C@@H](Cc1ccc(N(CCCl)CCCl)cc1)C(=O)O`, the T/C (dose: 10.0 mg/kg/injection, schedule: Q01DX001 (ip), vehicle: water, evaluated on day 35) is reported as 234 % of control, the T/C (dose: 10.0 mg/kg/injection, schedule: Q04DX003 (ip), vehicle: saline, evaluated on day 30) is reported as 267 and 291 % of control and the T/C (dose: 10.0 mg/kg/injection, schedule: Q04DX003 (ip), vehicle: saline, evaluated on day 45) is reported as 148 and 290 % of control. The T/C (dose: 10.0 mg/kg/injection, schedule: Q04DX003 (ip), vehicle: saline, evaluated on day 50) was 447 % of control, the T/C (dose: 10.0 mg/kg/injection, schedule: Q04DX003 (ip), vehicle: saline, evaluated on day 60) was 106 and 588 % of control and the T/C (dose: 10.0 mg/kg/injection, schedule: Q04DX003 (ip), vehicle: water, evaluated on day 30) was 90, 116, 118, 127 (2×), 136, 141, 194, 209, 223, 256, 260, 266, 272, 283 % of control. For the same compound, the T/C (dose: 10.0 mg/kg/injection, schedule: Q04DX003 (ip), vehicle: water, evaluated on day 35) was 160 and 296 % of control, the T/C (dose: 10.0 mg/kg/injection, schedule: Q04DX003 (ip), vehicle: water, evaluated on day 40) was 128, 214, 241 (2×), 268, 358, 431 % of control and the T/C (dose: 10.0 mg/kg/injection, schedule: Q04DX003 (ip), vehicle: water, evaluated on day 45) was 324 % of control. The survivor count (dose: 10.0 mg/kg/injection, schedule: Q04DX003 (ip), vehicle: water) was 5 of 6, the T/C (dose: 11.0 mg/kg/injection, schedule: Q04DX003 (ip), vehicle: saline) was 125 % of control and the survivor count (dose: 12.0 mg/kg/injection, schedule: Q04DX003 (ip), vehicle: Klucel (hydroxypropylcellulose) (HPC)) was 6 of 6. The T/C (dose: 12.5 mg/kg/injection, schedule: Q01DX001 (ip), vehicle: saline) was 560 % of control, the survivor count (dose: 12.5 mg/kg/injection, schedule: Q04DX003 (ip), vehicle: saline) was 8 of 8 and the T/C (dose: 12.5 mg/kg/injection, schedule: Q04DX003 (ip), vehicle: water) was 133 % of control. The T/C (dose: 15.0 mg/kg/injection, schedule: Q01DX001 (ip), vehicle: saline, evaluated on day 11) was 220 % of control, the T/C (dose: 15.0 mg/kg/injection, schedule: Q01DX001 (ip), vehicle: saline, evaluated on day 30) was 297 % of control and the T/C (dose: 15.0 mg/kg/injection, schedule: Q01DX001 (ip), vehicle: saline, evaluated on day 44) was 225 % of control. For the same compound, the T/C (dose: 15.0 mg/kg/injection, schedule: Q01DX001 (ip), vehicle: saline, evaluated on day 45) was 185, 262, 316, 416, 420, 432, 436, 441, 445 (3×), 450 % of control, the T/C (dose: 15.0 mg/kg/injection, schedule: Q01DX001 (ip), vehicle: saline, evaluated on day 47) was 355 % of control and the T/C (dose: 15.0 mg/kg/injection, schedule: Q01DX001 (ip), vehicle: saline, evaluated on day 49) was 471 % of control. For the same compound, the T/C (dose: 15.0 mg/kg/injection, schedule: Q01DX001 (ip), vehicle: saline, evaluated on day 52) was 287 % of control, the T/C (dose: 15.0 mg/kg/injection, schedule: Q01DX001 (ip), vehicle: saline, evaluated on day 60) was 208, 211, 242, 535, 540, 560, 566, 576 (2×), 582 (3×), 588, 600 % of control and the survivor count (dose: 15.0 mg/kg/injection, schedule: Q04DX002 (ip), vehicle: saline) was 8 of 8. The T/C (dose: 15.0 mg/kg/injection, schedule: Q04DX003 (ip), vehicle: saline) was 130 % of control, the T/C (dose: 15.0 mg/kg/injection, schedule: Q04DX003 (ip), vehicle: water, evaluated on day 30) was 88, 92, 96, 118, 121, 132, 148, 194, 266, 267 % of control and the T/C (dose: 15.0 mg/kg/injection, schedule: Q04DX003 (ip), vehicle: water, evaluated on day 35) was 132 and 298 % of control. The T/C (dose: 15.0 mg/kg/injection, schedule: Q04DX003 (ip), vehicle: water, evaluated on day 45) was 102 % of control [5 of 6 alive], the T/C (dose: 15.0 mg/kg/injection, schedule: Q04DX003 (ip), vehicle: water, evaluated on day 60) was 279 % of control and the survivor count (dose: 15.0 mg/kg/injection, schedule: Q04DX003 (ip), vehicle: water) was 6 of 6. For the same compound, the survivor count (dose: 16.0 mg/kg/injection, schedule: Q01DX005 (ip), vehicle: saline) was 6 of 6, the survivor count (dose: 16.0 mg/kg/injection, schedule: Q01DX005 (ip), vehicle: water) was 6 of 6 and the survivor count (dose: 16.0 mg/kg/injection, schedule: Q01DX009 (ip), vehicle: Klucel (hydroxypropylcellulose) (HPC)) was 4 of 6. The survivor count (dose: 16.0 mg/kg/injection, schedule: Q01DX009 (ip), vehicle: saline) was 10 of 10, the survivor count (dose: 16.0 mg/kg/injection, schedule: Q01DX009 (ip), vehicle: suspension in saline) was 6 of 6 and the survivor count (dose: 16.0 mg/kg/injection, schedule: Q03HX008 (ip), vehicle: saline) was 0 of 6 and 1 of 6. For the same compound, the T/C (dose: 16.0 mg/kg/injection, schedule: Q04DX003 (ip), vehicle: saline) was 125 % of control, the T/C (dose: 16.5 mg/kg/injection, schedule: Q04DX003 (ip), vehicle: saline) was 147 % of control and the survivor count (dose: 20.0 mg/kg/injection, schedule: Q01DX001 (ip), vehicle: Klucel (hydroxypropylcellulose) (HPC)) was 6 of 6. For the same compound, the T/C (dose: 20.0 mg/kg/injection, schedule: Q01DX001 (ip), vehicle: saline, evaluated on day 20) was 261 % of control [6 of 8 alive], the T/C (dose: 20.0 mg/kg/injection, schedule: Q01DX001 (ip), vehicle: saline, evaluated on day 30) was 293 and 297 % of control and the T/C (dose: 20.0 mg/kg/injection, schedule: Q01DX001 (ip), vehicle: saline, evaluated on day 44) was 324 % of control. For the same compound, the T/C (dose: 20.0 mg/kg/injection, schedule: Q01DX001 (ip), vehicle: saline, evaluated on day 45) was 188, 416, 420 [9 of 10 alive], 432, 441, 445 (4×), 450 % of control, the T/C (dose: 20.0 mg/kg/injection, schedule: Q01DX001 (ip), vehicle: saline, evaluated on day 47) was 451 % of control and the T/C (dose: 20.0 mg/kg/injection, schedule: Q01DX001 (ip), vehicle: saline, evaluated on day 49) was 365 % of control. The T/C (dose: 20.0 mg/kg/injection, schedule: Q01DX001 (ip), vehicle: saline, evaluated on day 52) was 514 % of control, the T/C (dose: 20.0 mg/kg/injection, schedule: Q01DX001 (ip), vehicle: saline, evaluated on day 60) was 329, 336, 392, 540, 560, 566, 576, 582 (2×), 588, 600 % of control and the survivor count (dose: 20.0 mg/kg/injection, schedule: Q01DX001 (ip), vehicle: saline) was 8 of 10 and 10 of 10. The T/C (dose: 20.0 mg/kg/injection, schedule: Q01DX001 (ip), vehicle: water, evaluated on day 30) was 166, 175, 225, 288 % of control, the T/C (dose: 20.0 mg/kg/injection, schedule: Q01DX001 (ip), vehicle: water, evaluated on day 35) was 218 % of control and the survivor count (dose: 20.0 mg/kg/injection, schedule: Q01DX001 (iv), vehicle: saline) was 3 of 6. For the same compound, the T/C (dose: 20.0 mg/kg/injection, schedule: Q04DX003 (ip), vehicle: saline, evaluated on day 30) was 135 % of control, the T/C (dose: 20.0 mg/kg/injection, schedule: Q04DX003 (ip), vehicle: saline, evaluated on day 45) was 90 and 119 % of control and the T/C (dose: 20.0 mg/kg/injection, schedule: Q04DX003 (ip), vehicle: saline, evaluated on day 50) was 90 % of control. The survivor count (dose: 20.0 mg/kg/injection, schedule: Q04DX003 (ip), vehicle: saline) was 6 of 6, the T/C (dose: 20.0 mg/kg/injection, schedule: Q04DX003 (ip), vehicle: water, evaluated on day 30) was 90, 119, 152 % of control and the T/C (dose: 20.0 mg/kg/injection, schedule: Q04DX003 (ip), vehicle: water, evaluated on day 35) was 96 and 166 % of control. The T/C (dose: 20.0 mg/kg/injection, schedule: Q04DX003 (ip), vehicle: water, evaluated on day 40) was 93, 97, 101, 134, 355 % of control, the survivor count (dose: 20.0 mg/kg/injection, schedule: Q04DX003 (ip), vehicle: water) was 2 of 6, 4 of 6, 5 of 6, 3 of 3, 6 of 6 (3×) and the survivor count (dose: 20.8 mg/kg/injection, schedule: Q04DX003 (ip), vehicle: saline) was 5 of 8. For the same compound, the survivor count (dose: 32.0 mg/kg/injection, schedule: Q01DX001 (ip), vehicle: suspension in saline) was 6 of 6, the survivor count (dose: 32.0 mg/kg/injection, schedule: Q01DX009 (ip), vehicle: suspension in saline) was 3 of 6 and 5 of 6 and the survivor count (dose: 32.0 mg/kg/injection, schedule: Q03HX008 (ip), vehicle: saline) was 0 of 6. The survivor count (dose: 40.0 mg/kg/injection, schedule: Q01DX001 (ip), vehicle: saline) was 5 of 6, the T/C [1] was 137 % of control and the survivor count [1] was 2 of 6, 2 of 3, 3 of 3. For the same compound, the survivor count (dose: 40.0 mg/kg/injection, schedule: Q01DX001 (iv), vehicle: saline) was 3 of 6, the T/C [2] was 90 % of control [4 of 6 alive] and the survivor count [2] was 1 of 6, 2 of 6, 3 of 6, 4 of 6 (2×), 5 of 6. For the same compound, the survivor count (dose: 64.0 mg/kg/injection, schedule: Q01DX001 (ip), vehicle: suspension in saline) was 5 of 6, the survivor count (dose: 64.0 mg/kg/injection, schedule: Q01DX009 (ip), vehicle: suspension in saline) was 4 of 6 and the survivor count (dose: 80.0 mg/kg/injection, schedule: Q01DX001 (ip), vehicle: saline) was 2 of 6. The survivor count (dose: 80.0 mg/kg/injection, schedule: Q01DX001 (ip), vehicle: water) was 0 of 6, 1 of 3, 2 of 3, the survivor count (dose: 80.0 mg/kg/injection, schedule: Q01DX001 (iv), vehicle: saline) was 1 of 6 and the survivor count (dose: 80.0 mg/kg/injection, schedule: Q04DX003 (ip), vehicle: water) was 1 of 6. For the same compound, the survivor count (dose: 128.0 mg/kg/injection, schedule: Q01DX001 (ip), vehicle: suspension in saline) was 1 of 6, the survivor count (dose: 128.0 mg/kg/injection, schedule: Q01DX009 (ip), vehicle: suspension in saline) was 0 of 6 and the survivor count (dose: 256.0 mg/kg/injection, schedule: Q01DX001 (ip), vehicle: suspension in saline) was 0 of 6. The survivor count (dose: 256.0 mg/kg/injection, schedule: Q01DX009 (ip), vehicle: suspension in saline) was 0 of 6.
